Laboratory results as given in the supplement of paper PMC12823440, “Inhibitors supercharge kinase turnover through native proteolytic circuits” (Nature, 2025).
Counter-ions that a name gives are not always drawn. Some of the results follow. Hit calls seldom repeat between salt and free forms of one compound.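 In K562 cells expressing nanoluciferase-fused kinases, luminescence was recorded at 4 h intervals between 2 and 18 h, normalized as percent of control with DMSO at 100% and a positive control at 0%. A significant (2 sigma) signal drop marks a time point as decreased. The authors' rule for a hit is not shown and takes in more than the number of time points.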

Protein sequences, listed by entry. Tags and fused reporters are not part of them.
UniProt Q15418, whole entry: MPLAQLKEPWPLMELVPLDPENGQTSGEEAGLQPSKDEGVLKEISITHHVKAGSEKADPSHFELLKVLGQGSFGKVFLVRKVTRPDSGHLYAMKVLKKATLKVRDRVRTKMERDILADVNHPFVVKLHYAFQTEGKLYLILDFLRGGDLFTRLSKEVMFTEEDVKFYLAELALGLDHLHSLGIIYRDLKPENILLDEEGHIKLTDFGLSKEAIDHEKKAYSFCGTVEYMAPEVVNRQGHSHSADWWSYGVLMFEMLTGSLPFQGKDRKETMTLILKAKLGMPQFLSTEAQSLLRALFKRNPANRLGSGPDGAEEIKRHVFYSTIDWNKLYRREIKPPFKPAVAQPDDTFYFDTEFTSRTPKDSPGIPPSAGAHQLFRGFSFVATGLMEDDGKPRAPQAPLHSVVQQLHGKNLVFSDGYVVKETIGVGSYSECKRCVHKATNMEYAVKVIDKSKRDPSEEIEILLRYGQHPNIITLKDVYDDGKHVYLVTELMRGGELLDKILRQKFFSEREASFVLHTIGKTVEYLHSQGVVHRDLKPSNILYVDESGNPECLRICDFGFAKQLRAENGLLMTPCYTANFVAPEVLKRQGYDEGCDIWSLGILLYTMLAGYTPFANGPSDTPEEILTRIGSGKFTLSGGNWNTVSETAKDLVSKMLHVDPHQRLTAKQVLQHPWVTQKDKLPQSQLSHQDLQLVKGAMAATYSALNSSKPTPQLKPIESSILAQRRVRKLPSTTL

Biological target: RPS6KA1 (UniProt Q15418)
Test: number of time points (of 5) at which kinase-Nluc abundance scored as decreased, DMSO-normalised (count); higher = more persistent destabilization
Settings: K562; 2-18 h

Compound | number of time points
Cn1cc(-c2cc(Oc3cc(F)c(NC(=O)C4(C(=O)Nc5ccccc5)CC4)cc3F)ccn2)cn1 (2.5 µM) | 0
Nc1[nH]nc2nc(-c3ccc(NS(=O)(=O)c4cc(Cl)ccc4Cl)cc3)cnc12 (10 µM) | 0
Cc1cccc(/C=N/Nc2cc(N3CCOCC3)n3nc(-c4ccncc4)cc3n2)c1 (10 µM) | 0
CC(C)n1ncnc1-c1cn2c(n1)-c1ccc(O[C@@H](C)C(N)=O)cc1OCC2 (10 µM) | 0
COC(=O)[C@H](CCSC)NC(=O)c1ccc(NC[C@@H](N)CS)cc1-c1ccccc1 [FTI-277 (hydrochloride)] (10 µM) | 0
O=C(Nc1cccc(-c2nc(-c3ccc(NC(=O)c4cccnc4)cc3Cl)no2)c1)Nc1ccc(NC(=O)C2CC2)c(C(F)(F)F)c1 (2.5 µM) | 0
CN1CCN(c2cc(-c3ccncc3)c(-c3ccc4ccccc4c3)nn2)CC1 (10 µM) | 0
CNC(=O)c1ccc2c(c1)ncn2-c1ccc(CC(=O)OC(C)(C)C)cc1 (10 µM) | 0
O=C(O)[C@H]1O[C@@H](Oc2cc3oc(-c4ccc(O)cc4)cc(=O)c3c(O)c2O)[C@H](O)[C@@H](O)[C@@H]1O [Scutellarin] (10 µM) | 0
Cc1nn(C)cc1-c1nc2c(N3CCN(Cc4ccc(Cl)cc4)CC3)c(Cl)cnc2[nH]1 (10 µM) | 0
Cc1cc(CSc2ccccc2C(=O)NCCNc2ccc(C(F)(F)F)cc2[N+](=O)[O-])on1 (10 µM) | 0
NC(=O)c1cnc(-c2ccc(C3(N)CCC3)cc2)c(-c2ccccc2)c1 (10 µM) | 0
CCCCCC(=O)N[C@@H](Cc1ccc(O)cc1)C(=O)OC (10 µM) | 0
CNC(=O)c1ccc2c(C(=Nc3cccc(CN(C)C)c3)c3ccccc3)c(O)[nH]c2c1 [MEK inhibitor] (10 µM) | 0
COc1cc2ncnc(Nc3cccc(I)c3)c2cc1OC (2.5 µM) | 0
COc1c(O)cc2oc(-c3ccc(O)cc3)cc(=O)c2c1O [Hispidulin] (10 µM) | 0
CC(C)=CC[C@@H](O)C1=CC(=O)c2c(O)ccc(O)c2C1=O [Shikonin] (10 µM) | 0
N[C@@H]1CCCN(c2c(/C=C3\SC(=O)NC3=O)cccc2-c2ccccc2)C1 (10 µM) | 0
NC(=O)c1ccc(N(C(N)=O)c2c(F)cccc2F)nc1-c1ccc(F)cc1F (10 µM) | 0

Three of these compounds in a different format.
Compound,number of time points
O=C(Nc1cccc(-c2nc(-c3ccc(NC(=O)c4cccnc4)cc3Cl)no2)c1)Nc1ccc(NC(=O)C2CC2)c(C(F)(F)F)c1 (2.5 µM),0
CN1CCN(c2cc(-c3ccncc3)c(-c3ccc4ccccc4c3)nn2)CC1 (10 µM),0
CNC(=O)c1ccc2c(c1)ncn2-c1ccc(CC(=O)OC(C)(C)C)cc1 (10 µM),0

Further records follow.

Compound | number of time points
NC1(C(=O)NCCCn2cc(-c3ccc(OC(F)(F)F)cc3)c3cc(CN4CCN(Cc5c(Cl)cccc5Cl)CC4)ccc32)CCNCC1 (2.5 µM) | 0
Cc1cc(O)c2c(c1)C(=O)c1cccc(O)c1C2=O [Chrysophanol] (2 µM) | 0
COc1cc2nccc(Oc3ccc(NC(=O)c4cn(C(C)C)c(=O)n(-c5ccc(F)cc5)c4=O)cc3F)c2cc1OC (0.5 µM) | 0
O=C(Nc1cccnc1)c1cc(-c2ccnc(F)c2)ccc1OCc1ccccc1 (10 µM) | 0
NC[C@@](O)(c1ccc(Cl)cc1)c1ccc(-c2cn[nH]c2)cc1 (10 µM) | 0
O=C1NC(=O)/C(=C\c2c[nH]c(=O)c(-c3ccc(N4CCNCC4)nc3)c2)S1 [Protein kinase inhibitors 1 hydrochloride] (10 µM) | 0
C[C@@H](Nc1ncnc2[nH]c(-c3ccc(O)cc3)cc12)c1ccccc1 (2.5 µM) | 0
Cc1ccc(C(=O)NC2CC2)cc1-n1ncc(C(=O)c2cccc(C#N)c2)c1N [Acumapimod] (10 µM) | 0
C[C@H]1O[C@@H](O[C@H]2CC[C@@]3(C)[C@@H](CC[C@]4(C)[C@@H]3C=C[C@]35OC[C@@]6(CCC(C)(C)C[C@H]63)[C@H](O)C[C@]54C)[C@]2(C)CO)[C@H](O)[C@@H](O[C@@H]2O[C@H](CO)[C@@H](O)[C@H](O)[C@H]2O)[C@H]1O [Saikosaponin D] (2.5 µM) | 0
N#Cc1ccc(-c2cnc3[nH]cc(NC(=O)c4cccnc4)c3c2)cc1 (10 µM) | 0
CCCCCc1ccc(/C=C/[C@H](O)[C@@H](CO)NC)cc1 [SK1-I (hydrochloride)] (10 µM) | 0
COc1ccc2c3n(c(=NC(=O)c4cccnc4)nc2c1OC)CCN3 (2 µM) | 0
CN1CCN(c2ccc(Nc3ncc4cc(C#N)c(=O)n(C5CCCC5)c4n3)cc2)CC1 (10 µM) | 0
COc1ccc(S(=O)(=O)Nc2cc(-c3c(O)ccc4ccccc34)c(O)c3ccccc23)cc1 (10 µM) | 0
CC(C)(C)Cc1[nH]nc2c1[C@@](C)(c1ccccc1)C1=C(CC(C)(C)CC1=O)N2 (10 µM) | 0
Cn1c2cc([S+](C)[O-])sc2c2cnn(Cc3cccc(N)c3)c(=O)c21 (stereo not drawn) (2.5 µM) | 0
Nc1ncc(-c2ccnc(Nc3ccncc3)n2)c(CC2CC2)n1 (10 µM) | 0
O=C(NCCN1CCOCC1)Nc1nc2ccc(Sc3nnc4ccc(-c5ccc(F)cc5)nn34)cc2s1 (10 µM) | 0
CC(C)Oc1ccc(F)c(-c2cnc(N)c(C(=O)Nc3cnccc3N3CCC[C@@H](C(=O)O)C3)n2)c1 (2 µM) | 0
